From the supplement of paper PMC6411743
± gives the standard deviation of the averaged measurements. Only a part is listed here, and it is no random draw.

Protein sequences, listed by entry. Tags and fused reporters are not part of them. Lines headed by an entry give the natural chain unless they say otherwise; changes in a name come on top.
UniProt Q99549: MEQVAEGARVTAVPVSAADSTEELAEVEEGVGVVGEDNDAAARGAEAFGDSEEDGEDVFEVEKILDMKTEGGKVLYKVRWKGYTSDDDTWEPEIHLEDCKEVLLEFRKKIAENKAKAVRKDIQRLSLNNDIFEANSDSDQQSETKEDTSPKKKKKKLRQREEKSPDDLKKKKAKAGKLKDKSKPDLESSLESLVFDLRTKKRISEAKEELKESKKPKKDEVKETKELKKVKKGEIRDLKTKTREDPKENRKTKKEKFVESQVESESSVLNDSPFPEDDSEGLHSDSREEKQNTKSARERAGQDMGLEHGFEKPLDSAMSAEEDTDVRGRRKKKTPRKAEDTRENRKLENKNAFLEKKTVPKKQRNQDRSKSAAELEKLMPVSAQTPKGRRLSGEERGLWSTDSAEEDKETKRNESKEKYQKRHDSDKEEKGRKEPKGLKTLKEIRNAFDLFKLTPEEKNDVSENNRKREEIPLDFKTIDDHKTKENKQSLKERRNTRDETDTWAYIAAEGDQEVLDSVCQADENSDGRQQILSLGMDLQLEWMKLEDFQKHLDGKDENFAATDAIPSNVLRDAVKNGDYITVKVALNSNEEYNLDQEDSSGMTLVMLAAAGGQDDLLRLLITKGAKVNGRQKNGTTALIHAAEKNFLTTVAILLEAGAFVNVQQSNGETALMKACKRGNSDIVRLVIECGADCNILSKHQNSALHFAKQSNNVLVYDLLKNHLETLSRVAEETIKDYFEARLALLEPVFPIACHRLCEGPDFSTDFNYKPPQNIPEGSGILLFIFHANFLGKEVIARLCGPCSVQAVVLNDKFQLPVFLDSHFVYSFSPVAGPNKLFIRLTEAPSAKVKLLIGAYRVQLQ
UniProt Q99797: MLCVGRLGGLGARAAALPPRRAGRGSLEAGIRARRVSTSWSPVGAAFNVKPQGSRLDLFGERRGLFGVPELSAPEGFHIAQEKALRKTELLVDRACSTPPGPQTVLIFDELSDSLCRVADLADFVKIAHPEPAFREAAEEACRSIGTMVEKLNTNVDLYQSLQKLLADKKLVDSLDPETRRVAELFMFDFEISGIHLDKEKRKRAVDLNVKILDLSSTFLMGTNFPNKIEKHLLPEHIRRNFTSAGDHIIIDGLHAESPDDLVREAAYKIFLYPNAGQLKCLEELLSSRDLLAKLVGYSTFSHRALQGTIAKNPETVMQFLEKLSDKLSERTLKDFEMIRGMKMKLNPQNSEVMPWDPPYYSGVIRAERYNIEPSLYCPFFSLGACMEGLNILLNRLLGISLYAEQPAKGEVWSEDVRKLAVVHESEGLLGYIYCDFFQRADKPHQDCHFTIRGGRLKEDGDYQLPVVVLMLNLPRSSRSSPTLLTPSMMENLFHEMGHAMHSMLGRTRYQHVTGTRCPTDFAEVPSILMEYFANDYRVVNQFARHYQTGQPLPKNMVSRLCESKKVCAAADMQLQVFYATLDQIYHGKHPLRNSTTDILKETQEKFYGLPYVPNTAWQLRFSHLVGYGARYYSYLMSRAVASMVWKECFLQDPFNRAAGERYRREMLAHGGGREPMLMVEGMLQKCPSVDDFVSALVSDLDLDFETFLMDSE
UniProt Q9BSR8: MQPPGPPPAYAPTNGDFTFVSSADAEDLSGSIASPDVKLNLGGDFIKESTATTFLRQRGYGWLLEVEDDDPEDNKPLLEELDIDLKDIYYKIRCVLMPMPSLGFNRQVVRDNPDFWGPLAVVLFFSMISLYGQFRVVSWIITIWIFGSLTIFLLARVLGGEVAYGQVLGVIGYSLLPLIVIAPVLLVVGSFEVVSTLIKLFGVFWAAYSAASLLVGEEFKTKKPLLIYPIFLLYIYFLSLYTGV
UniProt Q9BYV8: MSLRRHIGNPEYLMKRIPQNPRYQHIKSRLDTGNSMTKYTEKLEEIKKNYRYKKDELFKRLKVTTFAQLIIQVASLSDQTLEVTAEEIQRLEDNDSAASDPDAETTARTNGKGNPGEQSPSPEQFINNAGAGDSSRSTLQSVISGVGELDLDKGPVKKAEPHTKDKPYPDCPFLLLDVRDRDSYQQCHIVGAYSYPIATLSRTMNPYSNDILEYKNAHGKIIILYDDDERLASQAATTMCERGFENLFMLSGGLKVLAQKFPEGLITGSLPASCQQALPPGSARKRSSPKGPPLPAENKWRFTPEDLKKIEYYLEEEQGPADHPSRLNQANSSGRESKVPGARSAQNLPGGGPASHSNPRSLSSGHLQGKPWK
UniProt Q9BW27: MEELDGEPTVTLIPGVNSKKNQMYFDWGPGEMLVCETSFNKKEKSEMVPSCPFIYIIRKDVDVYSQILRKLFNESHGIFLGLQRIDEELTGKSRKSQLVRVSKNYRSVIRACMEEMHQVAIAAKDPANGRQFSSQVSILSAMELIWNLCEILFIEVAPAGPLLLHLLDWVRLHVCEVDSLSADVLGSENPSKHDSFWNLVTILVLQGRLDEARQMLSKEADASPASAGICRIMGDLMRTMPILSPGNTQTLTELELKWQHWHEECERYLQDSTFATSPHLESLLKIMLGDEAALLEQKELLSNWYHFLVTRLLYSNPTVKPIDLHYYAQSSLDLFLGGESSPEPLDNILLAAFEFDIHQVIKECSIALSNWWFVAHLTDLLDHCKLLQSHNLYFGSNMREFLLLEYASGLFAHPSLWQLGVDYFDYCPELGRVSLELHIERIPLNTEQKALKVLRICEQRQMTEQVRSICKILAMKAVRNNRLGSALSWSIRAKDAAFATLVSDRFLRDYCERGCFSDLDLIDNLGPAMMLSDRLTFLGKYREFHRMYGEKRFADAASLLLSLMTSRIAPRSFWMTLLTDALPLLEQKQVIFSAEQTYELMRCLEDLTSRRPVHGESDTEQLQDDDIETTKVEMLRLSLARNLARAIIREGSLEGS
UniProt Q9BY12: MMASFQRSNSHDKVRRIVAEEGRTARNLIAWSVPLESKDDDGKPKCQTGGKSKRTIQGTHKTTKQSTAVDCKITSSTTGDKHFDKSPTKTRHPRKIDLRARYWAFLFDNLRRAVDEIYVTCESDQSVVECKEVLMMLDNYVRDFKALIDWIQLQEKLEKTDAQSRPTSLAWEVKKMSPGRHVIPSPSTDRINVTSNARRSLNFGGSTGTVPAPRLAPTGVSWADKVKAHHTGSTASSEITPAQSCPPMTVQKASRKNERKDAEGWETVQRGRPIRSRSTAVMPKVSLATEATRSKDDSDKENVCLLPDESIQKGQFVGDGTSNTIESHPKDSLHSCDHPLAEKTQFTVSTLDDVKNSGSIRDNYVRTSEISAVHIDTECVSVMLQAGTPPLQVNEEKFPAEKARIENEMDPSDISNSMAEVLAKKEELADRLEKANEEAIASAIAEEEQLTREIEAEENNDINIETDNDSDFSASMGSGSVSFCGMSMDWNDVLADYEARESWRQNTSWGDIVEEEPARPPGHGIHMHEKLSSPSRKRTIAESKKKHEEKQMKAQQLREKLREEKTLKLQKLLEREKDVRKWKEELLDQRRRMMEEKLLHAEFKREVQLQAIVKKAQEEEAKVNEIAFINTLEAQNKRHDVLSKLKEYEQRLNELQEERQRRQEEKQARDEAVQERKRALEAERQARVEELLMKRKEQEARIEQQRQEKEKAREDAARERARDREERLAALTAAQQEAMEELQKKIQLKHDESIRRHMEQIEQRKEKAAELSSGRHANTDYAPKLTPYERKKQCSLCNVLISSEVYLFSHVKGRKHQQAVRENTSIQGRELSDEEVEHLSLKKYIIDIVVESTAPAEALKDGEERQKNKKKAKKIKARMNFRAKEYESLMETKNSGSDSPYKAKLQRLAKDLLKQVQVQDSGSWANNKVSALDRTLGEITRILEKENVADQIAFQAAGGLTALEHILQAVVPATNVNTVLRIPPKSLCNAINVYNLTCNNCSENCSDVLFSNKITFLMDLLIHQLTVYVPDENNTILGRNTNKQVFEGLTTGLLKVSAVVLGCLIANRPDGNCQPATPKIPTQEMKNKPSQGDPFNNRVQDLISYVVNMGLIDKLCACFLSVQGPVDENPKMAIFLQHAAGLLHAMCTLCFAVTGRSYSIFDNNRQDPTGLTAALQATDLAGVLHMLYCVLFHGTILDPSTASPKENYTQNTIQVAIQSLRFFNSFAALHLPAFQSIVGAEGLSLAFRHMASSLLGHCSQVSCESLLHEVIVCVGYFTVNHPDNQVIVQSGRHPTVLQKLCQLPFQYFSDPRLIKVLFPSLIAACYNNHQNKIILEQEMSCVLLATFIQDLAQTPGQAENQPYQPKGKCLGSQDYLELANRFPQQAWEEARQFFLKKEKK
UniProt Q99816: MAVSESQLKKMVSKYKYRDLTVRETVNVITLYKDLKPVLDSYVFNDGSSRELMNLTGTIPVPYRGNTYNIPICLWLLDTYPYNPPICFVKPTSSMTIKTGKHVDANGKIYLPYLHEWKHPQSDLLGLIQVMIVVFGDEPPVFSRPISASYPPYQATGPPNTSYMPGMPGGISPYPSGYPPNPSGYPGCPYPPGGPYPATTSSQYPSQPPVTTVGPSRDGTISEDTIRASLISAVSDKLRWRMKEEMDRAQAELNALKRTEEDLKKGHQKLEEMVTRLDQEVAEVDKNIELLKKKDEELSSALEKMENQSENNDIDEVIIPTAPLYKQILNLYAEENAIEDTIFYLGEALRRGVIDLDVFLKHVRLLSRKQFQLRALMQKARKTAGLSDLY
UniProt Q9BQ70: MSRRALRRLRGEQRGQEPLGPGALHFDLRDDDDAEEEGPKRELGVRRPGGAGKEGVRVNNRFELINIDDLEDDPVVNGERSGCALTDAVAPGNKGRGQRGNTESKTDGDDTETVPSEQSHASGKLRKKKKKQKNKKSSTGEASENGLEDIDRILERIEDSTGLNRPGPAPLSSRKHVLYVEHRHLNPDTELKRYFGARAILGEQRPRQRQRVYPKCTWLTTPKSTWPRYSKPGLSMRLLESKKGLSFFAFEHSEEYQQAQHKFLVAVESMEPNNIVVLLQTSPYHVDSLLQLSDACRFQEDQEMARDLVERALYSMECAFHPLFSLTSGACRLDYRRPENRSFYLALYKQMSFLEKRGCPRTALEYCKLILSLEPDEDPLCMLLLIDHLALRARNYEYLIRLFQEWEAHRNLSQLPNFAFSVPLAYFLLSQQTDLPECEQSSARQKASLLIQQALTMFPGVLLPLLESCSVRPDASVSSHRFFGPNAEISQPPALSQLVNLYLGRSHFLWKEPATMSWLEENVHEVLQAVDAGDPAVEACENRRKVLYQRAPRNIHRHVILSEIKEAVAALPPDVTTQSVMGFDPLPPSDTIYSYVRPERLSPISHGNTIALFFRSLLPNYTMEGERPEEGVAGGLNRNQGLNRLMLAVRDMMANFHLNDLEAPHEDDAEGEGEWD
UniProt Q9BQ95: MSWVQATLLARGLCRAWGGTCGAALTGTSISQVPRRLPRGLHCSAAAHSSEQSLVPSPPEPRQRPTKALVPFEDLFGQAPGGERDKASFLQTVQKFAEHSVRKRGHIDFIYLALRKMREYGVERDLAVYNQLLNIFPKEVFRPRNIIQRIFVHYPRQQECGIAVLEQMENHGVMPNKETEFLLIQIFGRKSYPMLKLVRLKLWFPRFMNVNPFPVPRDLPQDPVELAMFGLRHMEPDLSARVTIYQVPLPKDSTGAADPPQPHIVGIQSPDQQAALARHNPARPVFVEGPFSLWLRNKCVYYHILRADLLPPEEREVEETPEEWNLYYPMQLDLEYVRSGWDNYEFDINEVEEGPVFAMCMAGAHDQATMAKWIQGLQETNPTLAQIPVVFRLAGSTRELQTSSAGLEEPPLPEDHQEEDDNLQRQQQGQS
UniProt Q9BTE3: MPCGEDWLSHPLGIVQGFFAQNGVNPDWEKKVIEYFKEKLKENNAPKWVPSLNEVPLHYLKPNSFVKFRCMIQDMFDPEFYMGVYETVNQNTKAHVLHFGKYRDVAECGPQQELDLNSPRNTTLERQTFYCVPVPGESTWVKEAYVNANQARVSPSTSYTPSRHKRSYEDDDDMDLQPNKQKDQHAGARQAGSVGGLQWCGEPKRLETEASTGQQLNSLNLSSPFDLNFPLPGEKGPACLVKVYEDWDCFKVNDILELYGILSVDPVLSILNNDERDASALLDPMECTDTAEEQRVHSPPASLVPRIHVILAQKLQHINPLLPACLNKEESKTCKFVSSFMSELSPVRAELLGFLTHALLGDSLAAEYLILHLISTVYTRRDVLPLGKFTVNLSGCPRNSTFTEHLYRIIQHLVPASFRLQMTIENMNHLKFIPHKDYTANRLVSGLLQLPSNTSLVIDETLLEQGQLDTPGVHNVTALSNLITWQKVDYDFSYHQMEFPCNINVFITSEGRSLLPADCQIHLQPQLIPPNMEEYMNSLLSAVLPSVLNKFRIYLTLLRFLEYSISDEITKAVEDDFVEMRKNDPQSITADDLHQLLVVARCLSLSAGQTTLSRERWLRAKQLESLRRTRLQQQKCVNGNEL
UniProt Q9BQA9: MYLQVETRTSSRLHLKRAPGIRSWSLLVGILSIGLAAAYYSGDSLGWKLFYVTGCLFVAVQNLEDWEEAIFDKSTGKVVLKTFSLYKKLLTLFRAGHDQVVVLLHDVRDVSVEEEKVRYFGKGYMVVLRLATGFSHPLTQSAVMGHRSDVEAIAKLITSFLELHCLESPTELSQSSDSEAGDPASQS

Compound: Nc1ncnc2c1ncn2[C@@H]1O[C@H](COP(=O)(O)OP(=O)(O)OP(=O)(O)O)[C@@H](O)[C@H]1O [adenosine triphosphate]
Experiment: NP40-soluble protein abundance relative to vehicle (solubility fold change) (ratio); higher = more soluble protein in presence of ATP
Outline: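 Eight concentrations, 0.1 to 10 mM, were tested on Jurkat crude lysate for 10 min at room temperature and then 3 min at 37 °C, in three independent experiments. The lysate was solubilised with 0.8% NP40 and benzonase, ultracentrifuged, and the supernatant TMT-labelled for LC-MS/MS. Each value is the fold change against the detergent-processed vehicle in its own replicate, from vsn-normalised intensities.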

Target	NP40-soluble protein abundance (concentration: 1mM)	NP40-soluble protein abundance (concentration: 2mM)	NP40-soluble protein abundance (concentration: 4mM)	NP40-soluble protein abundance (concentration: 6mM)	NP40-soluble protein abundance (concentration: 8mM)	NP40-soluble protein abundance (concentration: 10mM)
UniProt Q9BSJ8 and related entries	1.02 ± 0.075	1 ± 0.059	0.988 ± 0.037	0.975 ± 0.093	0.999 ± 0.049	0.982 ± 0.052
UniProt Q99549 and related entries	1.02 ± 0.088	1.03 ± 0.027	1.05 ± 0.048	1.13 ± 0.033	1.08 ± 0.032	1.109 ± 0.0081
MIPEP (UniProt Q99797)	1.03 ± 0.072	0.986 ± 0.066	1 ± 0.061	0.963 ± 0.097	0.99 ± 0.04	0.987 ± 0.058
KATNAL1 (UniProt Q9BW62)	0.957 ± 0.059	0.935 ± 0.037	0.952 ± 0.044	0.954 ± 0.073	0.939 ± 0.038	0.927 ± 0.051
PIK3R4 (UniProt Q99570)	1.01 ± 0.052	0.996 ± 0.018	1 ± 0.046	0.945 ± 0.021	0.984 ± 0.016	1.01 ± 0.041
UniProt Q9BSR8 and related entries	1.01 ± 0.027	1 ± 0.026	0.987 ± 0.0079	1.01 ± 0.064	0.98 ± 0.044	0.973 ± 0.08
NEU1 (UniProt Q99519)	0.987 ± 0.044	1.04 ± 0.024	1.01 ± 0.043	1.06 ± 0.051	0.989 ± 0.019	0.96 ± 0.054
UniProt Q9BSJ2 and related entries	1.15 ± 0.13	1 ± 0.022	1.01 ± 0.044	1.01 ± 0.12	1.09 ± 0.099	1.07 ± 0.11
UniProt Q9BUE6 and related entries	0.94 ± 0.018	0.9988 ± 0.0037	1.03 ± 0.064	1.02 ± 0.052	0.959 ± 0.037	0.984 ± 0.059
UniProt Q9BYV8	0.983 ± 0.068	1.01 ± 0.034	1.014 ± 0.0022	1.01 ± 0.048	1 ± 0.035	0.992 ± 0.021
NUP85 (UniProt Q9BW27)	1.03 ± 0.12	1.01 ± 0.091	1.03 ± 0.078	0.949 ± 0.13	1.05 ± 0.04	1.1 ± 0.087
UniProt Q9BSB4	1.01 ± 0.17	1.02 ± 0.091	1.03 ± 0.11	0.933 ± 0.15	1.06 ± 0.058	1.04 ± 0.095
UniProt Q9BZI7 and related entries	1 ± 0.042	1.016 ± 0.01	1.013 ± 0.0027	1.06 ± 0.021	1.02 ± 0.023	1.04 ± 0.025
UniProt Q9BY12 and related entries	1.06 ± 0.059	1.09 ± 0.033	1.19 ± 0.043	1.26 ± 0.07	1.28 ± 0.068	1.41 ± 0.032
ACAT2 (UniProt Q9BWD1)	0.959 ± 0.049	0.947 ± 0.019	0.923 ± 0.034	0.98 ± 0.022	0.915 ± 0.048	0.917 ± 0.03
TSG101 (UniProt Q99816)	0.966 ± 0.027	0.9612 ± 0.0022	0.939 ± 0.03	0.968 ± 0.01	0.942 ± 0.016	0.905 ± 0.042
PDCD2L (UniProt Q9BRP1)	1.04 ± 0.047	1.01 ± 0.063	1.02 ± 0.055	1.04 ± 0.073	0.997 ± 0.031	1.02 ± 0.039
TCF25 (UniProt Q9BQ70)	1.07 ± 0.025	1.04 ± 0.032	1.13 ± 0.05	1.07 ± 0.083	1.11 ± 0.07	1.14 ± 0.068
UniProt Q99755-3|A6PW57	1.2 ± 0.022	1.21 ± 0.044	1.25 ± 0.043	1.3 ± 0.035	1.28 ± 0.024	1.27 ± 0.035
NLN (UniProt Q9BYT8)	1.01 ± 0.084	0.999 ± 0.067	0.983 ± 0.092	0.971 ± 0.099	1.01 ± 0.068	0.964 ± 0.049
ALKBH7 (UniProt Q9BT30)	1.04 ± 0.13	1.04 ± 0.15	1.01 ± 0.087	1.05 ± 0.25	0.933 ± 0.062	1.02 ± 0.079
RPAP1 (UniProt Q9BWH6)	1 ± 0.029	0.994 ± 0.015	1.01 ± 0.031	1.02 ± 0.035	0.985 ± 0.058	1.03 ± 0.056
ECSIT (UniProt Q9BQ95)	1 ± 0.07	0.98 ± 0.053	1.02 ± 0.053	1 ± 0.033	0.983 ± 0.026	0.984 ± 0.031
DNAJC7 (UniProt Q99615)	0.97 ± 0.015	0.941 ± 0.026	0.918 ± 0.018	0.973 ± 0.031	0.939 ± 0.03	0.919 ± 0.036
RNF5 (UniProt Q99942)	0.932 ± 0.043	0.913 ± 0.044	0.925 ± 0.024	0.955 ± 0.049	0.943 ± 0.047	0.898 ± 0.063
UniProt Q9BTE3 and related entries	1.03 ± 0.072	1.01 ± 0.057	1.01 ± 0.038	0.97 ± 0.059	1.02 ± 0.02	1 ± 0.043
UniProt Q9BQA9 and related entries	0.959 ± 0.18	0.979 ± 0.11	1.02 ± 0.098	0.807 ± 0.13	0.923 ± 0.031	1 ± 0.039
TSNAX (UniProt Q99598)	0.979 ± 0.036	0.961 ± 0.018	0.938 ± 0.018	0.9637 ± 0.005	0.948 ± 0.011	0.908 ± 0.037
PAIP2 (UniProt Q9BPZ3)	0.949 ± 0.068	0.946 ± 0.048	0.91 ± 0.054	0.98 ± 0.04	0.892 ± 0.036	0.871 ± 0.074
UniProt Q9BQT9 and related entries	1 ± 0.048	1.04 ± 0.091	1.11 ± 0.068	1 ± 0.079	1.02 ± 0.089	1.03 ± 0.047
